Results: the supplement of paper PMC3334620
Over roughly 33,000 sequences, “E-score (-0.5 to 0.5)” has its median near -0.016; the highest 2% begin near 0.3. This is one part of the list.

Target: T1, Yer184c (UniProt P39961)
T1 sequence: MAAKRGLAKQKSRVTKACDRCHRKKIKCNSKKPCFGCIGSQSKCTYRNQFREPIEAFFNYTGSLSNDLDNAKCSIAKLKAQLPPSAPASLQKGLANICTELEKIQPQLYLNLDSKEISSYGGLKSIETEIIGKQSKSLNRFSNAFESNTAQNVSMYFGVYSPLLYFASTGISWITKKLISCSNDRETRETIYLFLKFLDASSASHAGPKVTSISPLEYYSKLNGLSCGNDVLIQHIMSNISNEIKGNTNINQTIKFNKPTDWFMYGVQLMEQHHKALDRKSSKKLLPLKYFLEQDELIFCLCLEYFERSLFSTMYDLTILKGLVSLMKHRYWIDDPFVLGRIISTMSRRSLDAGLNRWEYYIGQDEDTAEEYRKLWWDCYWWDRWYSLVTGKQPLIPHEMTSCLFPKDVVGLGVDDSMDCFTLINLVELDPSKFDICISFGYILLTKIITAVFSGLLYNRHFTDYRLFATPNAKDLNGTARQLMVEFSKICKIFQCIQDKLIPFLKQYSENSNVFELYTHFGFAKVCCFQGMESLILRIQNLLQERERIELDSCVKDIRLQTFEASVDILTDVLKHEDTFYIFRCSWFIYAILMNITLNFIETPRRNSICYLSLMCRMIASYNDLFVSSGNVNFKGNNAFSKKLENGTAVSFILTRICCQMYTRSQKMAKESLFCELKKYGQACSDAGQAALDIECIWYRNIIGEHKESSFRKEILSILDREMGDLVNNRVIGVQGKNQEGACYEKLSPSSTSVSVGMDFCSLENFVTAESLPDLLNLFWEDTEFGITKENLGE
Experiment: PBM E-score (8-mer binding enrichment) (E-score (-0.5 to 0.5)); higher = stronger / more preferred TF binding
Conditions: protein concentration: 100 nM; construct: GST-full length
Outline: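 Universal all-10-mer Agilent arrays, double-stranded by primer extension on fresh or once-stripped slides, were probed with about 100-200 nM GST-tagged yeast transcription factors made by PURExpress. Fluorescent anti-GST detected bound protein, and masliner normalised the scans. E-scores from the Universal PBM Analysis Suite were given to each ungapped eight-base word pooled with its reverse complement.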

Sequence	PBM E-score
AGTAAGGC	-0.0494
AAACCATC	0.12
AACCGACG	0.189
CCCCAATA	-0.244
AGTTCTAA	0.121
ACCACGCA	-0.127
CATACGCC	-0.15
AGTGACTC	-0.068
CTGAGAGA	-0.0817
ATCAGTGC	-0.0899
GTAACCGA	0.182
ATGAAGTG	-0.132
CGACAGGC	-0.289
ACGGGTAG	0.0261
ACCTCCAG	-0.0698
AAAAGCGT	0.11
AAGCTATC	0.191
ATGTACGA	-0.0855
CAGGAACG	-0.0846
GTAATTCA	0.148
GCCATGAC	-0.229
TCTCACCA	0.0788
GCGGATCA	0.105
CATATGCC	-0.0485
ATTTGCCA	-0.0738

Sequence	PBM E-score
AGATAACT	-0.116
CCACAGCA	-0.0711
CATCTTGC	0.0249
ACCGCAAT	0.167
AACACGCG	-0.00328
ATGCTAAA	0.0332
CAAAAATC	0.0392
AGCGTAAA	0.0799
GGTGCGTA	-0.0974
AAAATTTG	0.168
GGAGCACA	-0.0179
AGCGCTCC	-0.0498
ATGGTGTA	-0.099
GGGCTAAC	-0.0996
AACTCATC	0.122
CGGCGTGC	0.0195
AACGGAAG	0.179
CCGTTCAA	0.197
GTAATCCA	0.0517
AGAATCAA	-0.00582
ACTCCATG	-0.196
CCGAAACC	0.0844
CACGCTAG	-0.189
AACACTGA	0.159
GCAGAGCC	0.0652

Sequence	PBM E-score
CTATTGCC	-0.131
ATTTAGCA	0.0123
TAGCAGAA	0.0545
AGGATGAG	-0.176
TTCGAAAA	0.185
ACGTGGAA	-0.0515
AGGGAGAC	-0.0969
CCTCTGGC	-0.0934
ATACTCCC	0.059
AAGTAGTA	0.0145
CGCGAATC	0.0279
ACCAAGAA	0.245
GTGCTACA	-0.353
GGATCCCC	-0.0124
CATCTGCA	-0.0527
CTTGGCCC	-0.367
GTTGCCCA	-0.0158
AGCTTGTG	-0.0907
AACTGTAG	-0.0186
AAGTATCC	0.0522
CGGACACG	0.233
AAATACAA	0.196
CGGGGGTC	-0.184
CACTTCGC	-0.178
GCCTGTAC	0.092

Sequence	PBM E-score
CCGGCTCG	0.339
CGACGAGA	-0.03
CATGAAAA	0.208
GGGAACCC	-0.0204
CTATGTTC	-0.0669
AACAGAGA	0.0223
ATGGGGCC	-0.383
CAATGAAG	0.023
AATAGTAT	0.22
CCATCAAC	-0.0312
GCCAGCGA	-0.0285
AGACCACT	-0.0965
AATAAGTC	-0.188
AACTTATT	0.202
AACGGTTA	0.0289
ACACTAGC	-0.101
GAGTGGGC	-0.21
AATTCTGC	0.128
AAGCGGCG	0.196
TACATCAA	0.00178
AGATTTGG	-0.213
CCGACTCG	0.0655
CACAACCA	0.142
CGATTACC	0.0428
AGGCTAAG	-0.197

Sequence	PBM E-score
CTTCGCTA	0.0075
AGACAAAT	0.0326
TCAGAGAA	-0.119
ACCGTATC	0.11
CATATAAG	0.0407
AGAGGATG	-0.121
AACACAGG	-0.224
ACCTCACG	-0.00421
GGTATCGA	-0.0146
CTAATGCC	-0.0432
CGTGAACC	-0.0513
AGTTCGAA	0.202
CTTCGGTA	0.235
GCCTCTTA	-0.0286
CACTGACC	-0.0388
GTAACAAA	0.193
CTCTCAAC	-0.0176
GAGCTACC	-0.133
GCTGTGCC	-0.0243
CCAATAAG	-0.0102
TGCCCGAA	0.0801
GAGAAGCC	0.023
ACGCCTTA	-0.0515
GTATCCGA	0.304
GAAGTCGC	-0.0769

Sequence	PBM E-score
CCACGGAA	0.338
CTTCATAA	0.164
CCACTAGG	-0.305
AATACCGC	0.0781
ACTTCCAT	0.0934
GGGTCCTA	-0.229
CATTGACC	-0.0148
CGACAACA	0.114
ATTTTCCA	0.178
GGTCGCAC	-0.076
TGATATAA	-0.0658
ATCCCCTG	-0.312
ACTGCTTG	-0.0732
ACTACAGA	0.168
CGTCAGTA	-0.0724
AAAACGAG	0.0101
GAGGGAGC	-0.277
CCGGCGAG	0.285
AGGTTTAA	0.102
ATTCAGTG	0.0284
AGACTATC	-0.0355
TAGGGAGA	-0.0689
AGGCGTGC	-0.116
AGCGCACG	-0.0806
ACAGTAGG	-0.179

Sequence	PBM E-score
ATCGCGCA	-0.117
GAACACAA	-0.0174
GTCATCAC	-0.256
GCCTCTCC	-0.195
AATATTAG	0.0179
ATGCTGAA	-0.016
AAGCCATC	0.0823
ATTAGTTA	0.222
CAGCCGAC	0.0296
TCCTTAGA	-0.109
CACGTCCA	-0.284
AGACCTGA	0.0577
AAACAGAA	0.113
CCTCACTA	-0.0343
ATCGGCCC	0.113
TATTAGGA	0.0723
CGGCGTAA	0.239
CTCATACA	-0.0372
AATTCCAA	0.116
CTTCCAGA	-0.111
AGGATCCC	-0.0989
GCTCCTAA	-0.223
GGGATAAA	0.195
ACACGCAG	-0.174
GGTCAAAC	0.122

Sequence	PBM E-score
CCCTCGCA	-0.13
GCTCAGAA	-0.00346
GTCGGAAC	0.217
GCAACTGA	0.0317
ACTTTAAG	0.0617
CCTTTTGC	-0.0697
ACGCCTGC	-0.225
GCATCCGC	-0.113
AGGCCTTC	-0.0978
CGACCTTC	0.0407
ACCTGAGT	-0.015
AGATACAG	0.0838
GATCTCGA	0.115
ACTGGCAG	-0.0376
GCATGTGA	-0.00717
GACATGCA	-0.147
ATGGGTCG	-0.091
GTCGCATA	0.029
CGACAGCA	-0.122
AACTGACG	-0.19
CCGTTCGC	0.0549
CCGCAGCC	-0.112
AGTTGAAG	-0.101
CACATAAC	-0.0415
ACACCCTA	-0.148

Sequence	PBM E-score
AAGCAACC	-0.0853
GGTTACTA	-0.0923
AACACATC	0.0583
ATCCGACG	0.155
AGAGCGCT	-0.202
GGACGGTA	0.0645
AGGACGAT	-0.101
AGGAACCG	0.179
CACGCGAC	-0.154
CGCGCATA	-0.208
ATCGGAAT	0.379
CCTCTGGA	-0.128
ACATAAGG	0.0838
GCCTGTCA	-0.166
CCGCACGC	-0.0986
ACCTTACA	-0.108
CCCTTGTC	-0.0796
ATAGTGCC	-0.0149
GGAGATAA	0.146
ACGTAAAA	0.125
GCGACGAA	0.0717
CCTTTAAA	-0.012
AAGCAATG	0.0554
TAAGGCTA	-0.0917
AAGAGATT	0.107

Some of the entries above, set out differently.
Sequence,PBM E-score
ACGCCTTA,-0.0515
GTATCCGA,0.304
GAAGTCGC,-0.0769
CCACGGAA,0.338
CTTCATAA,0.164
CCACTAGG,-0.305
AATACCGC,0.0781
ACTTCCAT,0.0934
GGGTCCTA,-0.229
CATTGACC,-0.0148
CGACAACA,0.114
ATTTTCCA,0.178
GGTCGCAC,-0.076
TGATATAA,-0.0658
ATCCCCTG,-0.312
ACTGCTTG,-0.0732
ACTACAGA,0.168
CGTCAGTA,-0.0724
AAAACGAG,0.0101
GAGGGAGC,-0.277
CCGGCGAG,0.285
AGGTTTAA,0.102
ATTCAGTG,0.0284
AGACTATC,-0.0355
TAGGGAGA,-0.0689
AGGCGTGC,-0.116
AGCGCACG,-0.0806
ACAGTAGG,-0.179
ATCGCGCA,-0.117
GAACACAA,-0.0174
GTCATCAC,-0.256
GCCTCTCC,-0.195
AATATTAG,0.0179
ATGCTGAA,-0.016
AAGCCATC,0.0823
ATTAGTTA,0.222
CAGCCGAC,0.0296
TCCTTAGA,-0.109
CACGTCCA,-0.284
AGACCTGA,0.0577
AAACAGAA,0.113
CCTCACTA,-0.0343
ATCGGCCC,0.113
TATTAGGA,0.0723
CGGCGTAA,0.239
CTCATACA,-0.0372
AATTCCAA,0.116
CTTCCAGA,-0.111
AGGATCCC,-0.0989
GCTCCTAA,-0.223
GGGATAAA,0.195
ACACGCAG,-0.174
GGTCAAAC,0.122
CCCTCGCA,-0.13
GCTCAGAA,-0.00346
GTCGGAAC,0.217
GCAACTGA,0.0317
ACTTTAAG,0.0617
CCTTTTGC,-0.0697
ACGCCTGC,-0.225
GCATCCGC,-0.113
AGGCCTTC,-0.0978
CGACCTTC,0.0407
ACCTGAGT,-0.015
AGATACAG,0.0838
GATCTCGA,0.115
ACTGGCAG,-0.0376
GCATGTGA,-0.00717
GACATGCA,-0.147
ATGGGTCG,-0.091
GTCGCATA,0.029
CGACAGCA,-0.122
AACTGACG,-0.19
CCGTTCGC,0.0549
CCGCAGCC,-0.112
AGTTGAAG,-0.101
CACATAAC,-0.0415
ACACCCTA,-0.148
AAGCAACC,-0.0853
GGTTACTA,-0.0923
AACACATC,0.0583
ATCCGACG,0.155
AGAGCGCT,-0.202
GGACGGTA,0.0645
AGGACGAT,-0.101
AGGAACCG,0.179
CACGCGAC,-0.154
CGCGCATA,-0.208
ATCGGAAT,0.379
CCTCTGGA,-0.128
ACATAAGG,0.0838
GCCTGTCA,-0.166
CCGCACGC,-0.0986
ACCTTACA,-0.108
CCCTTGTC,-0.0796
ATAGTGCC,-0.0149
GGAGATAA,0.146
ACGTAAAA,0.125
GCGACGAA,0.0717
CCTTTAAA,-0.012
AAGCAATG,0.0554
TAAGGCTA,-0.0917
AAGAGATT,0.107

Continuation.

Sequence	PBM E-score
CGCTCGCC	0.00476
AGTCTCCA	-0.178
CTCCGCGA	0.0959
GCTCAAGA	-0.177
CTGTATTC	0.13
GGTGTGTA	-0.226
CCGAATCC	0.322
CCGATGAG	0.0404
CCATTGCC	-0.0282
ACCATGAT	-0.154
GGGTAGAC	-0.181
CGGCCAAG	0.0915
CTAGTCAA	-0.126
TTGGCAAA	0.106
CTCTTGCA	-0.112
TAATGGCA	-0.0628
ACCTTGAC	-0.0709
ACATCCTC	-0.0455
ATCTCACC	0.147
ATTTAAAC	0.0959
CTCCTTAA	-0.0623
GGCTGGAC	-0.113
AGTCACTG	-0.142
ATATGTCG	0.106
ACGAACTC	0.155

Sequence	PBM E-score
TAACCTTA	-0.0841
AATATACA	0.154
GGTGGTGA	-0.179
CGTGTTCA	0.0708
ACGCTAAT	-0.00879
CAGGACGG	-0.134
ACAGTGCT	0.0435
ATCTCAAT	0.00748
CTTATATC	0.149
CCTAATCA	0.126
AGATCCCC	-0.22
AGGATAGA	0.0167
CTCTTAAA	0.196
AGTCTCGG	0.112
ATGGCATA	0.00654
AGCCCATG	-0.197
AGTCCCCC	-0.483
AGAAGAAT	-0.0953
CACTCACC	-0.119
AAGGCTCT	-0.175
ATGTCCCC	-0.156
ATTACTTC	0.0107
CCTTTGGA	-0.212
AAAGCGCC	0.0412
CGTTCCTA	0.0583

Sequence	PBM E-score
AGATAATA	0.0739
AAATGAAT	-0.0153
AGAGAAAT	-0.0135
AAACGTGG	-0.273
GAGGTGCA	-0.0348
CGACTATA	-0.0728
CTATCCAC	0.0314
AGCCCTAA	0.0169
ACACACGA	-0.0975
ACTGGATC	-0.132
ATACTGCA	0.132
CAGATCAG	0.0606
CGCCACTC	0.0215
AGGGGTGA	-0.397
CAAACGGG	-0.0368
CCGCAGCG	-0.0184
GAACCGTA	-0.052
GCGTAAAC	0.264
CTCGCTGA	-0.0846
ATAAAACG	0.196
ACTTTGGC	-0.0903
ACTATCGA	-0.203
GGCACAAC	0.0428
CAAAGGTA	-0.0249
TGTTCCAA	0.0502

Sequence	PBM E-score
CCTCACAC	-0.203
ACTACTGC	-0.153
CGAGCTCC	0.0493
GTTCCTAA	0.195
ACATTGAC	-0.0746
CCAACTCA	-0.00172
GCATGAGA	-0.166
CACATCTA	0.0649
GTACCCAA	-0.211
GACTAGTC	-0.0673
AGTATACC	0.0505
CAGAACCC	-0.0324
CTGCCCTC	-0.357
GCGACCAC	0.00486
AGAACCGA	0.095
AATCCGAA	0.0989
GCATTTCA	0.0231
AGGCGACA	-0.138
ATACATTA	0.162
GATATGGA	0.146
AGGTTCGG	0.173
ATCCGTGG	0.13
AAGCTGGC	-0.105
CAGGGAAA	0.0066
AATGTCCC	-0.162

Sequence	PBM E-score
AGACCGGC	0.128
ACGTTCGC	-0.16
TATGGACA	0.0399
CCATGAAC	0.102
AGAACGGC	0.176
ACTGGCTC	-0.156
AATCAACG	0.214
CAGGTGCG	-0.13
AGTCGTGC	-0.271
AGGTCCCC	-0.211
AGTTGCAC	-0.0844
ATGTTAGC	0.0216
TAGTTAGA	0.16
ACTCAATC	-0.00019
CCAAATCC	-0.0224
ACATTTCC	0.17
GCGAGGGA	-0.174
ACATGTTG	0.145
GATTCAGC	0.0121
